Measurements published in US9289496B2, “Lipid dipeptide and gel” (Nissan Chemical Industries, Ltd., priority 2008, dated 2016).
Residues, ends and D or L forms follow the SMILES beside them.

Assay: Preparation of film from sheet-shaped gel
Assay type: physicochemical
Protocol: Into a screw tube (Maruemu No. 3, manufactured by Maruemu Corp.), 3 mg of N-palmitoyl-Gly-His.TFA salt prepared in Example 1 was placed. Into the screw tube, 0.6 ml of Japanese Pharmacopoeia purified water (Kyoei Pharmaceutical Industries, Ltd.) was added so as to have a concentration of 0.5% (w/v). The whole was heated at 105° C. for 5 minutes, and then allowed to stand at room temperature to prepare a gel of 0.5% N-palmitoyl-Gly-His.TFA salt.
Into the gel, 2 ml of Japanese Pharmacopoeia purified water (Kyoei Pharmaceutical Industries, Ltd.) was further added and sheet formation was observed from a wide view for 72 hours.
Using 10 mg of free N-palmitoyl-Gly-His, each 2.0 mL of 30%, 20%, and 10% glycerin aqueous solutions was added so as to become a 0.5% (w/v) solution, and the mixture solution was heated and dissolved at 80° C. The solution was placed in a glass petri dish having an inner diameter of 2.2 cm and allowed to cool at room temperature. […] Then, the obtained gel was transferred onto a glass substrate.

## CCCCCCCCCCCCCCCC(=O)NCC(=O)N[C@@H](Cc1c[nH]cn1)C(=O)O.O=C(O)C(F)(F)F [Example 1, N-palmitoyl-Gly-His.TFA salt] (HELM PEPTIDE1{[CCCCCCCCCCCCCCCC(=O)[*:2]].G.H}$$$$V2.0)
0.5% (w/v) gel sheet in water, on glass substrate, desiccator for over ten days
  Film formation from gel sheet: a film of N-palmitoyl-Gly-His.TFA salt was prepared

## CCCCCCCCCCCCCCCC(=O)NCC(=O)N[C@@H](Cc1c[nH]cn1)C(=O)O [Example 4, N-Palmitoyl-Gly-His] (HELM PEPTIDE1{[CCCCCCCCCCCCCCCC(=O)[*:2]].G.H}$$$$V2.0)
0.5% (w/v) gels in 30%, 20% and 10% glycerin aqueous solutions, desiccator for 10 days
  Film formation from sheet-shaped gel: a film of free N-palmitoyl-Gly-His containing glycerin was prepared from each gel
